From PMC5293742

Columns and labels:
[1] = target: RacR (response regulator, phosphorylated with RacS cytoplasmic domain + ATP) (UniProt O68795); assay: EMSA; conditions: RacScyto, 5 mM Mg2+, 20 mM Tris pH 7.4, 5 mM MgCl2, 50 mM KCl, 50 ug/ml BSA, 10 ug/ml poly(dI-dC), 10% glycerol, 20 min at RT, 6% native Tris-glycine gel at 4 C, recombinant protein, protein details: His-tag, probe letters rebuilt from the primers and the genome
[2] = target: RacR (response regulator, phosphorylated with RacS cytoplasmic domain + ATP) (UniProt O68795); assay: competition with a labelled probe; conditions: 10x excess unlabelled dcuB fragment abolishes shift, RacScyto, 2 mM ATP, 5 mM Mg2+, 20 mM Tris pH 7.4, 5 mM MgCl2, 50 mM KCl, 50 ug/ml BSA, 10 ug/ml poly(dI-dC), 10% glycerol, 20 min at RT, 6% native Tris-glycine gel at 4 C, recombinant protein, protein details: His-tag, label: 32P (unlabelled as competitor), probe letters rebuilt from the primers and the genome

Sequence	binding result ([1]; 2 mM ATP, label: 32P)	also measured
GCGGTTTTCTTTCAGCTAAAGTTTGACTTAAAGTTTCCAAGTTTATTCACTCCTTTTGATCTTTGTAAAATATAATTTTAACAATGCGTATTGTAAATTTTAACAAAAAAACAAATCTAGAAATACTTTCTTTTATATGATATGATAATTTTTTATATAAATGTTACAAAATTTCTCATTATTTGC (double strand) [dctA promoter region]	no binding	–
TAAGTATATAATAAGCAACGACAATTACCGCTAAAAGTGTAGAACATATCATAAAAATTGGCATGATTTCTCCTAAAGTTATTATTAGCTTTTATTTTATTTTAGCTAAAATTTAACTAATAAATATTTTTCATTTAAAATTTTACTTATTTTTTGCATTATAAAATTAATAATATGTATAGTTTGGTTACTGAAA (double strand) [dcuC promoter region]	no binding	–
AGCTTGCAAAAATATATTAATTTTTTTTGAAGTAAATAAAATTTTTTATATTAATAAAAATTAAATATAAAGACATAATAGGATATAAAAATACTTAATTTATTGTATTTGAAAGTAGTTTTATTGTTAACCAATTATTAACTAAAAATGCAATATCATTATTTTATGATTTAAATCAAAAATTTTTGATTTTAAATTAAAATACTTTTATGAAAGGTTCAAAATGGGAACAAGAAAAGAACATGATTTTATTGGGGAATTAGAAATCTCTGATGAGGTTTATTA (double strand) [aspA-dcuA promoter region]	–	binding result ([1]; 2 mM ATP (phosphorylated RacR), label: 32P): binds
AAAATTCTATCAATCTATCAAACCCATTACACTTTTGTTTTATATTTAAATTTAATTTAAATAATATAAAAAATTATTGTTTTATTTTTAGAAATATTATTCTTTAATTTAAAAATGTGATACAATAATAACTGTTTTTAAATATCAATTTTCAAAGGAGTTAAAATGGACTTTTTAACAAGCCTTAGTGAGGGAGGGCAATTTGCAATCCAAAT (double strand) [dcuB promoter region]	–	binding result ([1]; 2 mM ATP (phosphorylated RacR), label: 32P (unlabelled as competitor)): binds; binding result [2]: binds
GCTGAGTATGGACCAATGGCCTTTGGATAGTTTGACATGAATTCTCCTTTGTTAAATATAGATTAAACAGAATGCATTTTATCACTACAATAATAATTTGTCAATAGTTTATTATCATAATAATAAAATTTTATTTTTAAGAAATGTTTTAAAGTATAAAGAGTA (double strand) [dcuC2 promoter region]	no binding	–

The exact form of at least one protein or probe is not confirmed. For part of these data: Negatives hold for the conditions tested.
